{
  "source": "patent US20240261297A1",
  "about": "“ANTI-CDK INHIBITORS FOR CANCER TREATMENT” (St. John's Cancer Institute, priority 2021, published 2024)",
  "note": "No dose or concentration is given here for some results.",
  "data": [
    {"system": "MDA-MB-468", "test": "Cell viability in breast cancer cell lines", "assay_type": "cell-based", "settings": "MCF-10A IC50 / MDA-MB-468 IC50", "description": "Tables 5 and 6 show assessment of in vitro efficacy of I-3 in a panel of breast cancer cell lines.", "values": [
      {"compound": "C[C@@]1(O)CCC[C@H]1n1c(=O)c(C(F)F)cc2cnc(NC3CCN(S(C)(=O)=O)CC3)nc21", "note": "[PF-06873600]", "Safety window (Normal/cancer)": 10},
      {"compound": "Nc1nccc(-c2c[nH]c3nccc(Oc4cccc(F)c4)c23)n1", "note": "[I-3, 4-(4-(3-fluorophenoxy)-1H-pyrrolo[2,3-b]pyridin-3-yl)pyrimidin-2-amine]", "Safety window (Normal/cancer)": 10},
      {"compound": "CC[C@H](Nc1nc(NCc2cnc(C)cc2C)c2ncn(C(C)C)c2n1)[C@@H](C)O", "note": "[CYC065, reference compound]", "Safety window (Normal/cancer)": 1}
    ]}
  ]
}
